Earlier results, collected in US20250195458A1, “SHORT-CHAIN FATTY ACIDS FOR CANCER TREATMENT” (priority 2022, published 2025).
At least one structure is not confirmed: it was looked up by name or label, or the drawing left a doubt.

Tested on: colorectal cancer cells
Conditions: literature summary of Example 2

CCCC(=O)O [Butyrate]
Anti-tumor effect in colorectal cancer (apoptosis): induces WNT/beta-catenin activity and apoptosis
